Laboratory results from PubChem BioAssay AID256 (DTP/NCI, 2004).
The list shows only some results of the screen, not a fair sample: it gathers tests that were run many times, whatever their T/C, doses with no T/C, and many T/C values between a quarter and a half above the control. Further doses and runs are listed elsewhere. T/C gives the treated animals as a percentage of the vehicle group. Some entries give survivors of the animals treated and no T/C: the source files T/C as zero there, which appears to mark a toxic dose or a test without result, not a measured value. Some doses without a T/C left all or most animals alive at the check, yet need not have been tolerated: the source hardly ever lists a survival T/C far under the control, and the zero likely stands for such cases as well. Counts of survivors are from the toxicity check (mostly the fifth day) where no day follows; animals may have died later. Schedule codes are those of the source, read here as Q, the interval in days (D) or hours (H), X, the number of doses. Some entries hold several experiments; their values stand side by side, smallest first. For survival time, this PubChem deposit counts one and a half times the control or more as active, and values a quarter to a half above the control carry no call in these data; other NCI protocols may use other cut-offs.

Tested on: CD2F1 mice, L1210 leukemia ip, survival T/C
Assay: NCI In Vivo Anticancer Drug Screen. Data for tumor model L1210 Leukemia (intraperitoneal) in CD2F1 (CDF1) mice
Conditions: higher T/C = longer survival
Procedure, shortened: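 Implant tumor; dose compound or vehicle; measure endpoint in both groups; report treated divided by control.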

[1] = T/C endpoint: mean survival time, dose: 200.0 mg/kg/injection, schedule: Q01DX009 (ip), vehicle: water
[2] = T/C endpoint: mean survival time, dose: 200.0 mg/kg/injection, schedule: Q01DX009 (ip), vehicle: saline with Tween-80
[3] = T/C endpoint: mean survival time, dose: 400.0 mg/kg/injection, schedule: Q01DX009 (ip), vehicle: saline with Tween-80
[4] = T/C endpoint: median survival time, dose: 400.0 mg/kg/injection, schedule: Q01DX009 (ip), vehicle: saline with Tween-80
[5] = T/C endpoint: mean survival time, dose: 400.0 mg/kg/injection, schedule: Q04DX003 (ip), vehicle: saline with Tween-80

`Cc1[nH]nc2c1CCCC2` was tested, and the survivor count (T/C endpoint: mean survival time, dose: 400.0 mg/kg/injection, schedule: Q01DX009 (ip), vehicle: other) was 0 of 6.
In the case of `NC(=O)CC(N)C(=O)O.[Cl-].[Cl-].[Cl-].[Cl-].[Pt+2]` (centres undefined), the survivor count (T/C endpoint: mean survival time, dose: 12.5 mg/kg/injection, schedule: Q01DX009 (ip), vehicle: water) is reported as 6 of 6, the survivor count (T/C endpoint: mean survival time, dose: 25.0 mg/kg/injection, schedule: Q01DX009 (ip), vehicle: water) is reported as 1 of 6 and the survivor count (T/C endpoint: mean survival time, dose: 50.0 mg/kg/injection, schedule: Q01DX009 (ip), vehicle: water) is reported as 2 of 6. For the same compound, the survivor count (T/C endpoint: mean survival time, dose: 100.0 mg/kg/injection, schedule: Q01DX009 (ip), vehicle: water) was 0 of 6 and the survivor count [1] was 0 of 6.
In the case of `CC(=O)NC1=C(Sc2ccc([N+](=O)[O-])cc2)C(=O)c2ccccc2C1=O`, the survivor count (T/C endpoint: mean survival time, dose: 150.0 mg/kg/injection, schedule: Q01DX001 (ip), vehicle: saline) is reported as 1 of 6 and the survivor count (T/C endpoint: mean survival time, dose: 300.0 mg/kg/injection, schedule: Q01DX001 (ip), vehicle: saline) is reported as 3 of 6.
`NN(C(=O)c1ccccc1)c1ccccc1` was tested, and the survivor count [2] was 1 of 6 and the survivor count [3] was 0 of 6.
In the case of `N=C(N)c1ccc(Nc2ccc(-c3cc4ccc(C(=N)N)cc4[nH]3)cc2)cc1`, the T/C (T/C endpoint: median survival time, dose: 1.87 mg/kg/injection, schedule: Q01DX005 (ip), vehicle: saline) is reported as 141 % of control, the T/C (T/C endpoint: median survival time, dose: 2.7 mg/kg/injection, schedule: Q01DX005 (ip), vehicle: saline) is reported as 137 % of control and the survivor count (T/C endpoint: median survival time, dose: 15.0 mg/kg/injection, schedule: Q01DX005 (ip), vehicle: saline) is reported as 6 of 6. For the same compound, the survivor count (T/C endpoint: median survival time, dose: 30.0 mg/kg/injection, schedule: Q01DX005 (ip), vehicle: saline) was 3 of 6.
With `[CH3][Sn]1([CH3])[O]C2C(CO)OC(n3cnc4c(N)ncnc43)C2[O]1` (centres undefined) the survivor count (T/C endpoint: mean survival time, dose: 100.0 mg/kg/injection, schedule: Q01DX005 (ip), vehicle: other) was 0 of 6 and the survivor count (T/C endpoint: mean survival time, dose: 200.0 mg/kg/injection, schedule: Q01DX005 (ip), vehicle: other) was 0 of 6.
In the case of `NCc1ccc(-c2nc3ncnc(N)c3[nH]2)cc1`, the survivor count (T/C endpoint: mean survival time, dose: 25.0 mg/kg/injection, schedule: Q01DX001 (ip), vehicle: saline with Tween-80) is reported as 3 of 6, the survivor count (T/C endpoint: mean survival time, dose: 50.0 mg/kg/injection, schedule: Q01DX001 (ip), vehicle: saline with Tween-80) is reported as 2 of 6 and the survivor count (T/C endpoint: mean survival time, dose: 200.0 mg/kg/injection, schedule: Q01DX001 (ip), vehicle: saline with Tween-80) is reported as 1 of 6. For the same compound, the survivor count (T/C endpoint: mean survival time, dose: 400.0 mg/kg/injection, schedule: Q01DX001 (ip), vehicle: saline with Tween-80) was 0 of 6.
`c1ccc(P(CCNCCP(c2ccccc2)c2ccccc2)c2ccccc2)cc1` was tested, and the survivor count [4] was 3 of 6.
For `CC(=O)c1cc(C)c[n+](C2OC(COC(=O)c3ccccc3)C(OC(=O)c3ccccc3)C2O)c1` (centres undefined), the survivor count (T/C endpoint: mean survival time, dose: 200.0 mg/kg/injection, schedule: Q01DX005 (ip), vehicle: water) was 0 of 6.
With `O=C(COc1ccc(Cl)c(Cl)c1)Nc1ccc[n+](Cc2ccccc2)c1` the survivor count (T/C endpoint: mean survival time, dose: 100.0 mg/kg/injection, schedule: Q04DX003 (ip), vehicle: saline with Tween-80) was 3 of 6, the survivor count (T/C endpoint: mean survival time, dose: 200.0 mg/kg/injection, schedule: Q04DX003 (ip), vehicle: saline with Tween-80) was 0 of 6 and the survivor count [5] was 0 of 6.
With `CCc1c2c(nc3ccc(OC(=O)N4CCC(N5CCCCC5)CC4)cc13)-c1cc3c(c(=O)n1C2)COC(=O)[C@]3(O)CC` the survivor count (T/C endpoint: median survival time, dose: 133.4 mg/kg/injection, schedule: Q04DX002 (ip), vehicle: water) was 3 of 6, the survivor count (T/C endpoint: median survival time, dose: 133.4 mg/kg/injection, schedule: Q04HX004 (iv), vehicle: water) was 0 of 10 and the survivor count (T/C endpoint: median survival time, dose: 200.0 mg/kg/injection, schedule: Q04DX002 (ip), vehicle: water) was 0 of 6.
With `CS(=O)(=O)c1cc(C(F)(F)F)cc([N+](=O)[O-])c1Cl` the survivor count [2] was 3 of 6 and the survivor count [5] was 4 of 6.
In the case of `CCCCCCCCCCCCCC#CC(=O)O`, the survivor count (T/C endpoint: mean survival time, dose: 100.0 mg/kg/injection, schedule: Q01DX009 (ip), vehicle: saline with Tween-80) is reported as 3 of 6.
With `CCC(C1=NC(C)(C)CC(C)O1)c1ccccc1` (centres undefined) (tested in a mixture with another compound) the survivor count [3] was 0 of 6.
With `O=C(Nc1c(Cl)cccc1Cl)Oc1ccc(Br)cc1` the survivor count [2] was 3 of 3.
With `COc1ccc(C(C)c2cc3c(cc2OC)OCO3)cc1` (centres undefined) the survivor count [4] was 0 of 5.
For `BrCc1ccccc1C[P+](c1ccccc1)(c1ccccc1)c1ccccc1`, the survivor count (T/C endpoint: mean survival time, dose: 12.5 mg/kg/injection, schedule: Q01DX009 (ip), vehicle: saline sonified) was 3 of 6, the survivor count (T/C endpoint: mean survival time, dose: 25.0 mg/kg/injection, schedule: Q01DX009 (ip), vehicle: saline sonified) was 3 of 6 and the survivor count (T/C endpoint: mean survival time, dose: 50.0 mg/kg/injection, schedule: Q04DX003 (ip), vehicle: saline sonified) was 1 of 6. The survivor count (T/C endpoint: mean survival time, dose: 100.0 mg/kg/injection, schedule: Q04DX003 (ip), vehicle: saline sonified) was 0 of 6.
With `COP(=O)(OC)OCC1OC(n2ccc(N)nc2=O)C(O)C1O` (centres undefined) the T/C (T/C endpoint: median survival time, dose: 200.0 mg/kg/injection, schedule: Q01DX005 (ip), vehicle: saline) was 129 % of control and the T/C (T/C endpoint: median survival time, dose: 400.0 mg/kg/injection, schedule: Q01DX005 (ip), vehicle: saline) was 129 % of control.
In the case of `O=C1C(Br)CCC1C(O)(C(F)(F)F)C(F)(F)F` (centres undefined), the survivor count [5] is reported as 0 of 6.
For `COc1cc2cc[n+](C)cc2cc1OC`, the survivor count [1] was 0 of 6 and the survivor count (T/C endpoint: mean survival time, dose: 400.0 mg/kg/injection, schedule: Q01DX009 (ip), vehicle: water) was 0 of 6.
With `O=C(O)CCSc1ccc2c(c1)CCCC2` the survivor count (T/C endpoint: mean survival time, dose: 400.0 mg/kg/injection, schedule: Q01DX009 (ip), vehicle: Klucel (hydroxypropylcellulose) (HPC)) was 3 of 6.
For `CCC(=O)O.CCC(=O)O.CCC(=O)O.CCC(=O)O.O=P1(N(CCCl)CCCl)NCCCO1.O=P1(N(CCCl)CCCl)NCCCO1.[Rh].[Rh]` (centres undefined), the survivor count (T/C endpoint: mean survival time, dose: 8.0 mg/kg/injection, schedule: Q01DX001 (ip), vehicle: water) was 3 of 6, the survivor count (T/C endpoint: mean survival time, dose: 15.63 mg/kg/injection, schedule: Q01DX001 (ip), vehicle: water) was 0 of 6 and the survivor count (T/C endpoint: mean survival time, dose: 31.25 mg/kg/injection, schedule: Q01DX001 (ip), vehicle: water) was 0 of 6. The survivor count (T/C endpoint: mean survival time, dose: 62.5 mg/kg/injection, schedule: Q01DX001 (ip), vehicle: water) was 0 of 6, the survivor count (T/C endpoint: mean survival time, dose: 125.0 mg/kg/injection, schedule: Q01DX001 (ip), vehicle: water) was 0 of 6 and the survivor count (T/C endpoint: mean survival time, dose: 250.0 mg/kg/injection, schedule: Q01DX001 (ip), vehicle: water) was 0 of 6. The survivor count (T/C endpoint: mean survival time, dose: 500.0 mg/kg/injection, schedule: Q01DX001 (ip), vehicle: water) was 0 of 6.
With `CCC1(O)C(=O)OCc2c1cc1n(c2=O)Cc2cc3cc4c(cc3nc2-1)OCO4` (centres undefined) the survivor count (T/C endpoint: median survival time, dose: 8.0 mg/kg/injection, schedule: Q01DX005 (ip), vehicle: saline with Tween-80) was 6 of 6, the survivor count (T/C endpoint: median survival time, dose: 16.0 mg/kg/injection, schedule: Q01DX005 (ip), vehicle: saline with Tween-80) was 6 of 6 and the survivor count (T/C endpoint: median survival time, dose: 32.0 mg/kg/injection, schedule: Q04DX002 (ip), vehicle: saline with Tween-80) was 5 of 6.
For `Cc1cccc(OP(=O)(c2ccccc2)c2ccccc2)c1`, the survivor count (T/C endpoint: mean survival time, dose: 100.0 mg/kg/injection, schedule: Q01DX005 (ip), vehicle: saline with Tween-80) was 5 of 6, the survivor count (T/C endpoint: mean survival time, dose: 200.0 mg/kg/injection, schedule: Q01DX005 (ip), vehicle: saline with Tween-80) was 6 of 6 and the survivor count (T/C endpoint: mean survival time, dose: 400.0 mg/kg/injection, schedule: Q01DX005 (ip), vehicle: saline with Tween-80) was 6 of 6.
For `CC(=O)NC1C(OC(C)=O)OC(COC(c2ccccc2)(c2ccccc2)c2ccccc2)C(O)C1OC(C)=O` (centres undefined), the survivor count (T/C endpoint: mean survival time, dose: 25.0 mg/kg/injection, schedule: Q04DX002 (ip), vehicle: saline with Tween-80) was 6 of 6.
`O=S1(=O)CC23C=CC=CC2(CCCC3)C1Cl` (centres undefined) was tested, and the survivor count (T/C endpoint: mean survival time, dose: 200.0 mg/kg/injection, schedule: Q04DX003 (ip), vehicle: other) was 5 of 6 and the survivor count (T/C endpoint: mean survival time, dose: 400.0 mg/kg/injection, schedule: Q04DX003 (ip), vehicle: other) was 3 of 6.
`CCCCCCCCCCCCCCC/C([O-])=N/[N+](C)(C)CC(C)O` (centres undefined) was tested, and the survivor count (T/C endpoint: mean survival time, dose: 200.0 mg/kg/injection, schedule: Q01DX001 (ip), vehicle: saline) was 10 of 10, the survivor count [2] was 2 of 3 and the survivor count (T/C endpoint: mean survival time, dose: 400.0 mg/kg/injection, schedule: Q01DX001 (ip), vehicle: saline) was 8 of 10. The survivor count (T/C endpoint: mean survival time, dose: 800.0 mg/kg/injection, schedule: Q01DX001 (ip), vehicle: saline) was 3 of 6 and 7 of 10.
